PubChem BioAssay AID1053208 | Peter MacCallum Cancer Centre | 2014

- Assay: 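Genes whose silencing cuts survival of bone tumour cells only with doxorubicin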 (primary screen)
- System: mouse osteosarcoma cells, early-passage culture from an engineered mouse model of fibroblastic bone tumour
- Reagents: siRNA pool against mouse genes, 40 nM
- Duration: about 120 h (48 h before drug, then 72 h with drug)
- Challenge: doxorubicin 100 nM for 72 h, roughly 30-40% inhibitory dose
- Measured: 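Viability read as ATP luminescence after 72 h of 100 nM doxorubicin or none, duplicate wells averaged, scaled to non-targeting siRNA, then expressed as robust z-scores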
- Scale: viability z-score with doxorubicin and doxorubicin viability vs non-targeting: higher = more viable cells under doxorubicin; viability z-score without drug: higher = more viable cells with knock-down alone; z-score of drug to no-drug ratio: higher = less drug sensitisation by knock-down
- Hit rule: 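a pool counts as active when its viability z-score with doxorubicin is -2 or below and its z-score without drug lies between -2 and 2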
The deposit covers about 17,000 reagents; shown is a part drawn at random. In the full data, 788 (4.7%) got an active call. 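Calls rest on z-score classes alone; an extra cut-off of viability at most 70% of control was not applied to them.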 Reagent sequences are not shown.

gene | combined z-score class | viability z-score with doxorubicin | viability z-score without drug | z-score of drug to no-drug ratio | doxorubicin viability vs non-targeting | Call
Hbb-bh1 | no change with or without drug | 0.34 | 0 | 0.45 | 0.97 | inactive
Aggf1 | no change with or without drug | 1.57 | 0.51 | 1.35 | 1.08 | inactive
Dyrk2 | no change with or without drug | 1.12 | 0.51 | 0.9 | 1.04 | inactive
Hnmt | no change with or without drug | 0.34 | -0.84 | 1.12 | 0.97 | inactive
Npffr1 | no change with or without drug | 0.11 | 0.51 | -0.11 | 0.95 | inactive
D030060O14RIK | high cell count without drug only | 1.12 | 2.02 | -0.11 | 1.04 | inactive
Elovl5 | no change with or without drug | -1.24 | 0.84 | -1.69 | 0.83 | inactive
Capn3 | no change with or without drug | 0.56 | 0.84 | 0.11 | 0.99 | inactive
Mrps9 | no change with or without drug | -1.69 | -1.52 | -0.67 | 0.79 | inactive
Ndufa6 | low cell count without drug only | 0.34 | -2.53 | 2.59 | 0.97 | inactive
Hcn3 | no change with or without drug | -0.79 | -0.17 | -0.56 | 0.87 | inactive
Rbmy | no change with or without drug | 0.22 | -0.17 | 0.45 | 0.96 | inactive
Clpp | no change with or without drug | 0.67 | 1.52 | -0.22 | 1 | inactive
Mical2 | no change with or without drug | -1.12 | -1.85 | 0.22 | 0.84 | inactive
Or5p66 | no change with or without drug | -1.57 | -0.51 | -1.24 | 0.8 | inactive
Fndc7 | no change with or without drug | -0.9 | 1.35 | -1.69 | 0.86 | inactive
Or2ag13 | no change with or without drug | -0.22 | -0.17 | 0 | 0.92 | inactive

Next part (2 carried over from the part before).
gene | combined z-score class | viability z-score with doxorubicin | viability z-score without drug | z-score of drug to no-drug ratio | doxorubicin viability vs non-targeting | Call
Fndc7 | no change with or without drug | -0.9 | 1.35 | -1.69 | 0.86 | inactive
Or2ag13 | no change with or without drug | -0.22 | -0.17 | 0 | 0.92 | inactive
Foxp4 | no change with or without drug | -0.79 | -0.51 | -0.34 | 0.87 | inactive
Mrgpre | no change with or without drug | 0 | -1.18 | 1.01 | 0.94 | inactive
Ugcg | no change with or without drug | 0.45 | -0.84 | 1.24 | 0.98 | inactive
Sult4a1 | no change with or without drug | -1.69 | -1.18 | -0.9 | 0.79 | inactive
Tmeff2 | no change with or without drug | 1.12 | 1.18 | 0.45 | 1.04 | inactive
Dctn5 | no change with or without drug | 1.35 | 1.18 | 0.67 | 1.06 | inactive
Mmadhc | no change with or without drug | -1.35 | 0.34 | -1.46 | 0.82 | inactive
Scgb2b24 | no change with or without drug | -0.67 | -1.52 | 0.45 | 0.88 | inactive
Dnajb4 | no change with or without drug | 0 | 0.84 | -0.45 | 0.94 | inactive
Gga3 | no change with or without drug | 0 | 1.01 | -0.56 | 0.94 | inactive
Guk1 | no change with or without drug | 1.01 | 0.51 | 0.79 | 1.03 | inactive
Mrpl11 | no change with or without drug | 1.8 | -0.17 | 2.14 | 1.1 | inactive
Or10d5j | no change with or without drug | -0.9 | 0.51 | -1.12 | 0.86 | inactive
Map3k11 | no change with or without drug | 0 | -0.67 | 0.56 | 0.94 | inactive
Rbbp4 | no change with or without drug | -1.35 | 0.34 | -1.46 | 0.82 | inactive
Mrfap1 | no change with or without drug | 1.46 | 0.84 | 1.01 | 1.07 | inactive
Cbx2 | no change with or without drug | -0.22 | 0.51 | -0.45 | 0.92 | inactive
Gja4 | no change with or without drug | 0 | -0.17 | 0.22 | 0.94 | inactive
Scd2 | no change with or without drug | 0.34 | -0.51 | 0.79 | 0.97 | inactive
Or5j3 | no change with or without drug | 1.35 | -0.17 | 1.69 | 1.06 | inactive
Itga9 | low cell count with and without drug | -2.92 | -2.19 | -1.69 | 0.68 | inactive
Hapln3 | no change with or without drug | 0.67 | 0.67 | 0.34 | 1 | inactive
Or8h8 | no change with or without drug | -0.45 | 0 | -0.34 | 0.9 | inactive
Homer1 | no change with or without drug | 0.45 | 0.84 | 0 | 0.98 | inactive
Sars1 | low cell count with doxorubicin only | -3.15 | -0.17 | -3.15 | 0.66 | active
Higd1a | no change with or without drug | 0.79 | 0.84 | 0.34 | 1.01 | inactive
Neto1 | no change with or without drug | 0.9 | -0.84 | 1.69 | 1.02 | inactive
Spg21 | no change with or without drug | 0.67 | 0.34 | 0.56 | 1 | inactive
Dtx1 | no change with or without drug | 0.45 | 0 | 0.56 | 0.98 | inactive
Snx5 | no change with or without drug | 1.12 | 0.34 | 1.01 | 1.04 | inactive
Mocs2 | no change with or without drug | 0.9 | 1.35 | 0.11 | 1.02 | inactive
Stk31 | no change with or without drug | -0.34 | -0.84 | 0.34 | 0.91 | inactive
Nt5c2 | no change with or without drug | 0.67 | 0.84 | 0.22 | 1 | inactive
